This is an account of results in PubChem BioAssay AID2685 (National Center for Advancing Translational Sciences (NCATS), 2010).

The nature of the assay: qHTS Assay for Lipid Storage Modulators in Drosophila S3 Cells.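 For cell number change: cells counted by Cell Tracker Red CMTPX staining in the red channel.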 To be noted: BODIPY lipid droplet fluorescence, 18-24 h; for cell number change: measured here: cell count max response, cells fed with added oleic acid. The method in brief:
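Drosophila S3 cells loaded with oleic acid (400 uM, as added) and compounds at several concentrations; lipid droplets imaged by 488-nm laser-scanning cytometry, 500–530 nm intensity and object ratio to cell channel. Percent activity normalized to 20 uM Triacsin C.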
A general note: In qHTS, concentration-response curves come from the screen itself.

Setting [1] is: measured here: lipid fluorescence (Fed channel) AC50, cells fed with added oleic acid.
Where [2] appears, read: measured here: cell number channel AC50, cells fed with added oleic acid.

The other results are listed elsewhere or left out. These are further read-outs of the screen, such as a control signal, another cell line or another target. No call is given for them. Compounds called inactive in the main read-out are mostly missing here. Words in brackets tell the shape of the fitted curve; partial curves, single points and poor fits give uncertain potencies.

On to `O=C(Nc1cnc2ccccc2c1)c1ccco1`, for which the cell number change is 9.84%.
Regarding `CC(NC(=O)c1cc(S(=O)(=O)N2CCCC2)cn1C)c1ccccc1` (configuration not stated), the cell number change was found to be 0.865%. In addition, the AC50 under setting [1] was 13 µM [rising, partial curve, poor fit].
As to `CCOC(=O)C1CCN(Cc2c(C(=O)N3CCOCC3)nc3c(C)cccn23)CC1`, the cell number change is -2.05%.
For `O=[N+]([O-])c1cc(CN2CCCC2)ccc1Sc1ccc(Cl)cc1`, the cell number change was -44.3%. Under setting [2], the AC50 was 29.1 µM [falling, single point]. In addition, under setting [1], the AC50 is 1.64 µM [falling, partial curve].
Take `CC(C)(C)c1csc(NC(=O)C2COc3ccccc3O2)n1` (configuration not stated): the cell number change came out at 1.76%. The AC50 under setting [1] is 2.06 µM [rising, full curve, poor fit].
For the compound `O=C(COC(=O)c1cnccn1)NCc1ccc(Cl)cc1`, the cell number change was 92.3%.
For the compound `CN(CC(O)COc1ccc(S(=O)(=O)N2CCOCC2)cc1Cl)C1CCCCC1` (configuration not stated), the cell number change was -15.3%. Also, the AC50 under setting [2] was 0.116 µM [falling, full curve, poor fit].
`CCOC(=O)Cn1c(CN2CCc3ccccc3C2)nc2c1c(=O)n(C)c(=O)n2C`: the cell number change is -29.8%. In addition, the AC50 under setting [2] is 0.103 µM [rising, full curve, poor fit]. Besides, under setting [1], the AC50 was 5.8 µM [falling, full curve].
On to `CC(NC(=O)c1ccc(N2CCCC2=O)cc1)c1ccccc1` (configuration not stated), for which the cell number change is -15.8%.
The same measure, in the same setting: the figure for `Cc1cnc(NC(=O)c2ccc(Cl)nc2)s1` is -29.8%.
On to `CCCCc1ccccc1NC(=S)NC1CCCC1`, for which the cell number change is -37.6%. For the same compound, the AC50 under setting [1] is 29.1 µM [falling, single point].
For the compound `CC(=O)Nc1c(C(=O)N2CCOCC2)cnn1-c1ccc(C)c(C)c1`, the cell number change was determined as 99%. Besides, the AC50 under setting [2] is 29.1 µM [rising, single point]. The AC50 under setting [1] was 25.9 µM [rising, single point].
Consider `CCOC(=O)C1(Cc2ccccc2)CCN(Cc2ccc3cc(NC(C)=O)ccc3n2)CC1`, for which the AC50 under setting [1] was 6.51 µM [rising, single point].
On to `COCCn1c(=O)[nH]c2cc(C(=O)NCCN3CCN(c4ccccc4)CC3)ccc2c1=O`, for which the cell number change was 6.77%. Under setting [1], the AC50 was 20.6 µM [falling, partial curve, poor fit].
For `CC1(C)C(=O)Nc2ccccc2N1C(=O)CSc1ncccn1`, the cell number change was -2.28%. Also, the AC50 under setting [2] is 0.00411 µM [falling, full curve, poor fit]. Besides, under setting [1], the AC50 was 0.0058 µM [falling, full curve, poor fit].
As for `Cc1cc(NC(=O)/C=C/c2ccc(F)cc2)n(-c2nc3ccccc3[nH]2)n1`, the cell number change is -27.8%. Moreover, the AC50 under setting [1] is 29.1 µM [falling, single point].
Regarding `CN(C(=O)C1CCN(S(=O)(=O)c2ccccc2)CC1)c1c(N)n(Cc2ccccc2)c(=O)[nH]c1=O`, the cell number change was -29.3%. In addition, the AC50 under setting [1] was 6.51 µM [falling, partial curve, poor fit].

Broadly, the AC50 is the midpoint of the concentration-response curve, whichever way the signal moves. Low readings indicate activity at low concentration, high ones activity only at high concentration.
